Measured values reported in patent publication US7332518B2, “Carboxamides as fungicides in agriculture” (Syngenta Crop Protection, Inc., priority 2001, dated 2008).
Some results were stated once for a whole list of compounds, not compound by compound.

Tests used:
Format in all cases: in vivo
Puccinia recondita = assay: Action against Puccinia recondita / wheat (brownrust on wheat); details: wheat cv. Arina, 0.02% active ingredient, spray, inoculated 1 day after application, assessed 10 days after inoculation
Podosphaera leucotricha = assay: Action against Podosphaera leucotricha / apple (powdery mildew on apple); details: apple seedlings cv. McIntosh, 0.002% active ingredient, spray, inoculated 1 day after application, assessed after 12 days incubation
Venturia inaegualis = assay: Action against Venturia inaegualis / apple (scab on apple); details: apple seedlings cv. McIntosh, 0.02% active ingredient, spray, inoculated 1 day after application, assessed after 4+4+4 days incubation
Erysiphe graminis = assay: Action against Erysiphe graminis / barley (powdery mildew on barley); details: barley cv. Express, 0.02% active ingredient, spray, inoculated 1 day after application, assessed after 6 days incubation
Botrytis cinerea [1] = assay: Action against Botrytis cinerea / apple (Botrytis on apple fruits); details: apple fruit cv. Golden Delicious, 30 μl droplets of 0.002% active ingredient in drilled holes, inoculated 2 hours after application, assessed after 7 days
Botrytis cinerea [2] = assay: Action against Botrytis cinerea / grape (Botrytis on grapes); details: grape seedlings cv. Gutedel, 0.002% active ingredient, spray, inoculated 2 days after application, assessed after 4 days incubation
Botrytis cinerea [3] = assay: Action against Botrytis cinerea / tomato (Botrytis on tomatoes); details: tomato plants cv. Roter Gnom, 0.002% active ingredient, spray, inoculated 2 days after application, assessed after 4 days incubation
Pyrenophora teres = assay: Action against Pyrenophora teres / barley (net blotch on barley); details: barley cv. Express, 0.002% active ingredient, spray, inoculated 2 days after application, assessed 4 days after inoculation
Septoria nodorum = assay: Action against Septoria nodorum / wheat (Septoria leaf spot on wheat); details: wheat cv. Arina, 0.02% active ingredient, spray, inoculated 1 day after application, assessed 11 days after inoculation

Measured: infestation (disease incidence)

C=CCN(C(=O)c1cn(C)nc1C(F)(F)F)c1ccccc1-c1ccc(Cl)cc1 [Compound 2.1]
< 20%: all assays above

C=CCN(C(=O)c1cn(C)nc1C(F)(F)F)c1ccccc1C(C)CC(C)C (stereo not drawn) [Compound 2.7]
< 20%: all assays above

C#CCN(C(=O)c1cn(C)nc1C(F)(F)F)c1ccccc1C(C)CC(C)C (stereo not drawn) [Compound 2.15]
< 20%: all assays above

CC(=O)N(C(=O)c1cn(C)nc1C(F)(F)F)c1ccccc1C(C)CC(C)C (stereo not drawn) [Compound 2.42]
< 20%: all assays above

CCC(=O)N(C(=O)c1cn(C)nc1C(F)(F)F)c1ccccc1-c1ccc(Cl)cc1 [Compound 2.62]
< 20%: all assays above

CCC(=O)N(C(=O)c1cn(C)nc1C(F)(F)F)c1ccccc1C(C)CC(C)C (stereo not drawn) [Compound 2.68]
< 20%: all assays above

CCCC(=O)N(C(=O)c1cn(C)nc1C(F)(F)F)c1ccccc1-c1ccc(Cl)cc1 [Compound 2.75]
< 20%: all assays above

COCC(=O)N(C(=O)c1cn(C)nc1C(F)(F)F)c1ccccc1-c1ccc(Cl)cc1 [Compound 2.85]
< 20%: all assays above

COCC(=O)N(C(=O)c1cn(C)nc1C(F)(F)F)c1ccccc1C(C)CC(C)C (stereo not drawn) [Compound 2.91]
< 20%: all assays above

C=CCN(C(=O)c1cn(C)cc1C(F)(F)F)c1ccccc1-c1ccc(F)cc1 [Compound 3.1]
< 20%: all assays above

C#CCN(C(=O)c1cn(C)cc1C(F)(F)F)c1ccccc1-c1ccc(F)cc1 [Compound 3.8]
< 20%: all assays above

CC(=O)N(C(=O)c1cn(C)cc1C(F)(F)F)c1ccccc1-c1ccc(F)cc1 [Compound 3.28]
< 20%: all assays above

COCC(=O)N(C(=O)c1cn(C)cc1C(F)(F)F)c1ccccc1-c1ccc(F)cc1 [Compound 3.67]
< 20%: all assays above

COCC(=O)N(C(=O)c1cn(C)cc1C(F)(F)F)c1ccccc1C(C)CC(C)C (stereo not drawn) [Compound 3.74]
< 20%: all assays above

C#CCN(C(=O)c1cn(C)cc1C(F)(F)F)c1cccc2c1C(C)CC2(C)C (stereo not drawn) [Compound 10.3, 1-methyl-4-trifluoromethyl-1H-pyrrole-3-carboxylic acid prop-2-ynyl-(1,1,3-trimethylindan-4-yl)amide]
< 20%: all assays above

COCC(=O)N(C(=O)c1cn(C)cc1C(F)(F)F)c1cccc2c1C(C)CC2(C)C (stereo not drawn) [Compound 10.10, 1-methyl-4-trifluoromethyl-1H-pyrrole-3-carboxylic acid (2-methoxyacetyl)-(1,1,3-trimethylindan-4-yl)amide]
< 20%: all assays above
